Measured values: patent US11420994B2, “Carbon-monoxide-releasing molecules and therapeutic applications thereof” (GEORGIA STATE UNIVERSITY RESEARCH FOUNDATION, INC., priority 2016, dated 2022)

System: RAW 264.7 cells
Assay: Intracellular CO release, fluorescence imaging
Type: cell-based, mouse
Settings: 25, 50 μM, 4 hours at 37° C.; blue fluorescence of cyclized product (105, 127) or COP-1 probe (119)

**Q.** `C#CC(C)(C)OC(=O)C1=C2C(=C(c3ccccc3)C1=O)c1cccc3cccc2c13` [Compound 105] was tested. Which “CO release in cells” value did it give?
**A.** easily confirmed

**Q.** For `C#CCOC(=O)C1=C(c2ccccc2)C(c2ccccc2)=C(c2ccccc2)C1=O` [Compound 119], which “CO release in cells” value is on record?
**A.** verified

**Q.** `C#CCN(c1ccccc1C1=C2C(=C(C(=O)N3CCOCC3)C1=O)c1cccc3cccc2c13)S(C)(=O)=O` [Compound 127] was tested. Which “CO release in cells” value did it give?
**A.** easily confirmed
